Data as given in PubChem BioAssay AID1259405 (NCATS, 2018).

- Aim: 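Silenced genes that increase secreted GFP made by CHO cells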 (primary screen)
- Cell system: Chinese hamster CHO-K1 ovary cells with stable secreted eGFP expression
- Reagents: single siRNA against mouse genes, 0.8 pmol siRNA per well (2 µl of 400 nM stock)
- Time to read-out: 3 days
- Measured: 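Per-well intracellular GFP measured by laser scanning cytometry, plus viability from ATP luminescence, each relative to plate median of non-targeting control wells, in %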
- Scale: GFP, % of control: higher = more GFP per well, higher productivity; viability (ATP), % of control: higher = more viable cells (more ATP)
- Active means: 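a knock-down is called active if GFP reaches 120% or more of non-targeting control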
Here is one part, drawn at random, of about 50,000 reagents. About 4,000 of all reagents (8%) were called active. 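Mouse siRNA library applied to hamster cells; one well for each siRNA.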 Reagents against one gene are numbered here.

gene,reagent no.,"GFP, % of control","viability (ATP), % of control",Outcome
Copb2,1,61.3,39.2,inactive
Copb2,2,36.9,11,inactive
Copb2,3,97.4,76.3,inactive
Pbrm1,1,99.9,93.1,inactive
Pbrm1,2,85.9,76,inactive
Pbrm1,3,68.8,78.9,inactive
Cfhr4,1,60.7,66.9,inactive
Cfhr4,2,62.5,69.8,inactive
Cfhr4,3,81.8,43.8,inactive
Sh3glb2,1,94.9,89.5,inactive
Sh3glb2,2,107,43,inactive
Sh3glb2,3,67.1,74.7,inactive
Ppef2,1,77.1,81.3,inactive
Ppef2,2,73.7,70.5,inactive
Ppef2,3,63.8,94.6,inactive
Acta2,1,56.5,45.4,inactive
Acta2,2,67,102,inactive
Or6c74,1,32.7,41.3,inactive
Or6c74,2,84.9,54.6,inactive
Or6c74,3,73.5,69.7,inactive
Ttyh2,1,66,33.8,inactive
Ttyh2,2,122,67.1,active
Ttyh2,3,114,103,inactive
Msl3l2,1,116,70,inactive
Msl3l2,2,78.7,77.2,inactive
Msl3l2,3,46.3,45,inactive
Gbp5,1,92,52.8,inactive
Gbp5,2,71.8,61.5,inactive
Gbp5,3,86.3,81.5,inactive
Or52x1,1,38.4,64.5,inactive
Or52x1,2,60.6,40.4,inactive
Or52x1,3,55.8,65.2,inactive

Ordered by “GFP, % of control” (highest first): 9 of the entries above
gene,reagent no.,"GFP, % of control","viability (ATP), % of control",Outcome
Sh3glb2,2,107,43,inactive
Sh3glb2,1,94.9,89.5,inactive
Pbrm1,2,85.9,76,inactive
Cfhr4,3,81.8,43.8,inactive
Ppef2,1,77.1,81.3,inactive
Pbrm1,3,68.8,78.9,inactive
Sh3glb2,3,67.1,74.7,inactive
Cfhr4,2,62.5,69.8,inactive
Cfhr4,1,60.7,66.9,inactive

More results follow:
gene,reagent no.,"GFP, % of control","viability (ATP), % of control",Outcome
Zfand2b,1,81.4,81.3,inactive
Zfand2b,2,70.6,76.6,inactive
Zfand2b,3,63.4,61.6,inactive
Bbox1,1,95.3,72.3,inactive
Bbox1,2,48.4,21.5,inactive
Bbox1,3,69.6,47.2,inactive
Strbp,1,75.5,75.8,inactive
Strbp,2,77.1,93.8,inactive
Strbp,3,88.9,94,inactive
Strbp,4,107,120,inactive
Strbp,5,137,137,active
Strbp,6,141,115,active
Krtap14,1,91.2,105,inactive
Krtap14,2,79.8,90.3,inactive
Krtap14,3,94.8,92.4,inactive
Ywhaq,1,74.8,83.4,inactive
Ywhaq,2,55.9,63.2,inactive
Ywhaq,3,49.9,54.4,inactive
Kctd11,1,57.9,54.5,inactive
Kctd11,2,94.3,70.8,inactive
Kctd11,3,65,61.6,inactive
Slc9b1,1,34.4,45.4,inactive
Slc9b1,2,63.9,85.9,inactive
Slc9b1,3,98.8,119,inactive
1810065E05Rik,1,102,78.6,inactive
1810065E05Rik,2,115,90.5,inactive
1810065E05Rik,3,61.7,63.1,inactive
Marchf8,1,57.5,63.2,inactive
Marchf8,2,62.4,49,inactive
Marchf8,3,43.3,75.2,inactive
Apbb2,1,68.7,51.7,inactive
Apbb2,2,99.1,91.8,inactive
Apbb2,3,58.9,67.4,inactive
Gpkow,1,56.6,55,inactive
Gpkow,2,26.1,24.2,inactive
Gpkow,3,103,95.7,inactive
Rtn4r,1,108,94.1,inactive
Rtn4r,2,61.8,68.1,inactive
Rtn4r,3,167,73.5,active
Brcc3,1,105,104,inactive
Brcc3,2,55.4,55,inactive
Brcc3,3,80.3,109,inactive
Nfkbil1,1,117,73.6,inactive
Nfkbil1,2,68.7,55.3,inactive
Nfkbil1,3,87.8,91.6,inactive
Arsa,1,90.9,105,inactive
Arsa,2,76.8,66,inactive
Arsa,3,64.8,107,inactive
Arhgap33os,1,59.7,65.1,inactive
Arhgap33os,2,95.2,67.4,inactive
Arhgap33os,3,33,61,inactive
Copz1,1,104,84.5,inactive
Copz1,2,74.9,76.1,inactive
Copz1,3,56.4,40.6,inactive
